Binding data for six substances are collected here from publication doi:10.1101/2025.08.11.669663.

The chains behind the UniProt entries cited, without tags or fusion partners.
UniProt P00441: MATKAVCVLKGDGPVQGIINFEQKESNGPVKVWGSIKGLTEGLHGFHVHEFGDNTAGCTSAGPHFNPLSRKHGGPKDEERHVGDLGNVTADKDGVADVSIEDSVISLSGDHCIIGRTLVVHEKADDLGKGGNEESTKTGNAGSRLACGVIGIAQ
UniProt P39748: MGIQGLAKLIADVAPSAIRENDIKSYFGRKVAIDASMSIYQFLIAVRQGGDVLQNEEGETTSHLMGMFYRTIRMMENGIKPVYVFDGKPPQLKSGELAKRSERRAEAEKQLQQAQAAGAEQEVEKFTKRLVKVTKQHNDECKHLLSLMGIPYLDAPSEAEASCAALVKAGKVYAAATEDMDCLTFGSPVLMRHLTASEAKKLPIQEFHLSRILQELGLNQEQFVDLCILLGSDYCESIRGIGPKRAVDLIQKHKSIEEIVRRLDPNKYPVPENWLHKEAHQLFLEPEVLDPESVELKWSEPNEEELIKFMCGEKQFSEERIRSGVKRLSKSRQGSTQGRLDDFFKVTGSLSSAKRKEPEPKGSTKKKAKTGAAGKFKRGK
UniProt P49736: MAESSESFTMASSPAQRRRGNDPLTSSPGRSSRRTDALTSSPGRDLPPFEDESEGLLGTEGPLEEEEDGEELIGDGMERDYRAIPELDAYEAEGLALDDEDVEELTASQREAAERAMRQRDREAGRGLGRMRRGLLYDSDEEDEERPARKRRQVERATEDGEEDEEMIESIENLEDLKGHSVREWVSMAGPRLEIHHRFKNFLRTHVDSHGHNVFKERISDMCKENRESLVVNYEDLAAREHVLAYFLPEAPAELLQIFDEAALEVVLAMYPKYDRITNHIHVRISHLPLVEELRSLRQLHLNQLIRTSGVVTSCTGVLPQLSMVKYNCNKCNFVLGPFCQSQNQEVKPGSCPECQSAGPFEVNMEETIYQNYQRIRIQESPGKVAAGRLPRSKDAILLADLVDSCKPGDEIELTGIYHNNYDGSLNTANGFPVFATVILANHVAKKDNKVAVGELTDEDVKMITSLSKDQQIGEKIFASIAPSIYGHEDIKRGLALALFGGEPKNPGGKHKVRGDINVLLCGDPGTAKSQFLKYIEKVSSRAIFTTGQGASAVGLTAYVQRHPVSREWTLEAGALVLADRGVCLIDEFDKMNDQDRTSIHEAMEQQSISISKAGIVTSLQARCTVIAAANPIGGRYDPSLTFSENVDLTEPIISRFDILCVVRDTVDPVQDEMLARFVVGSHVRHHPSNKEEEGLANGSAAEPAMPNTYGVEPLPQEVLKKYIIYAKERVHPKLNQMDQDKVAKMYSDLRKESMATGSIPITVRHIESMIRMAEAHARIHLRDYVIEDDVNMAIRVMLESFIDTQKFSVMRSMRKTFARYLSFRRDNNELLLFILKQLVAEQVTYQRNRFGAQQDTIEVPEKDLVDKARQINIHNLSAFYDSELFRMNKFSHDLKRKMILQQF
UniProt P52701: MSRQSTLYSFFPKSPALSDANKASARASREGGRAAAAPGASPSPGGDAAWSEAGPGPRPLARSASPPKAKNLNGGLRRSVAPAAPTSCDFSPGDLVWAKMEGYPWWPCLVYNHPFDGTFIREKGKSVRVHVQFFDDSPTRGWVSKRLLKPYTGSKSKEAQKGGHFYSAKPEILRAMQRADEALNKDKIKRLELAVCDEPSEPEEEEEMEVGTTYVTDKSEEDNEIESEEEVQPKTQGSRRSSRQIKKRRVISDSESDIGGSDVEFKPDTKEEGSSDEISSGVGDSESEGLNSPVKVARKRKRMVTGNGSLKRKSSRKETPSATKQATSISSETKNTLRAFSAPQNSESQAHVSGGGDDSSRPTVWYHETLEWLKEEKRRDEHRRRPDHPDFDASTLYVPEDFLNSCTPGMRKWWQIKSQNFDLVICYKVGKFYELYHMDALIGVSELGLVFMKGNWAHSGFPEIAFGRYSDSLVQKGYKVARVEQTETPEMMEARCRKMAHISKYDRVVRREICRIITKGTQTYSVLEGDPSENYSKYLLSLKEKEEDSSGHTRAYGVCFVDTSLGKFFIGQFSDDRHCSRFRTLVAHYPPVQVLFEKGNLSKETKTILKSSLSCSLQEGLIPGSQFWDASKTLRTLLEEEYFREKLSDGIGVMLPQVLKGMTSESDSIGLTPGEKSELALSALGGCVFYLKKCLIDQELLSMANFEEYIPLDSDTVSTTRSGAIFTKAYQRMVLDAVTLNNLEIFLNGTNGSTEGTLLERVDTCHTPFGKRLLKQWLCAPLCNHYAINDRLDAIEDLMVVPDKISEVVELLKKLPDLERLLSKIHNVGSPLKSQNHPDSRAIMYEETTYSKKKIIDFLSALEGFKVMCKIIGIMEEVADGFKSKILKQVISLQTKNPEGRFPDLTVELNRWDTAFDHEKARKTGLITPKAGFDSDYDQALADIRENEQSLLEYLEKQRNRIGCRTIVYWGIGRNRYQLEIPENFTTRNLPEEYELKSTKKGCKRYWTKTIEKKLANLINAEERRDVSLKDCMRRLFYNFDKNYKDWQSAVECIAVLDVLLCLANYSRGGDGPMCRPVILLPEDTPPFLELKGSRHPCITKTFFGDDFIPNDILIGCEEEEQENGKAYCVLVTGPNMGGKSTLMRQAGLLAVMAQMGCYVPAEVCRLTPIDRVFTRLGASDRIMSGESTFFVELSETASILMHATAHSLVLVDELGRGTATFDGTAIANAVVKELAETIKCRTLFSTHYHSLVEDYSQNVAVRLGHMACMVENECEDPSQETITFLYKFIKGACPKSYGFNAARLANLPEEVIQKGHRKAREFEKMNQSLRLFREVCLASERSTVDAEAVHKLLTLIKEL
UniProt P12004: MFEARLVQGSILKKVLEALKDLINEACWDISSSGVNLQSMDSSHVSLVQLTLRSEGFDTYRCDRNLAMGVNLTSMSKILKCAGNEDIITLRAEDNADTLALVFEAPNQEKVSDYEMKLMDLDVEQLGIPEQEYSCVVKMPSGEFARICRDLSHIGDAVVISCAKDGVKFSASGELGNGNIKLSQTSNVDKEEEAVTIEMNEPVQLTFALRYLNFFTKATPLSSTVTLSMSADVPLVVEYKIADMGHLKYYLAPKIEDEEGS
UniProt P28340: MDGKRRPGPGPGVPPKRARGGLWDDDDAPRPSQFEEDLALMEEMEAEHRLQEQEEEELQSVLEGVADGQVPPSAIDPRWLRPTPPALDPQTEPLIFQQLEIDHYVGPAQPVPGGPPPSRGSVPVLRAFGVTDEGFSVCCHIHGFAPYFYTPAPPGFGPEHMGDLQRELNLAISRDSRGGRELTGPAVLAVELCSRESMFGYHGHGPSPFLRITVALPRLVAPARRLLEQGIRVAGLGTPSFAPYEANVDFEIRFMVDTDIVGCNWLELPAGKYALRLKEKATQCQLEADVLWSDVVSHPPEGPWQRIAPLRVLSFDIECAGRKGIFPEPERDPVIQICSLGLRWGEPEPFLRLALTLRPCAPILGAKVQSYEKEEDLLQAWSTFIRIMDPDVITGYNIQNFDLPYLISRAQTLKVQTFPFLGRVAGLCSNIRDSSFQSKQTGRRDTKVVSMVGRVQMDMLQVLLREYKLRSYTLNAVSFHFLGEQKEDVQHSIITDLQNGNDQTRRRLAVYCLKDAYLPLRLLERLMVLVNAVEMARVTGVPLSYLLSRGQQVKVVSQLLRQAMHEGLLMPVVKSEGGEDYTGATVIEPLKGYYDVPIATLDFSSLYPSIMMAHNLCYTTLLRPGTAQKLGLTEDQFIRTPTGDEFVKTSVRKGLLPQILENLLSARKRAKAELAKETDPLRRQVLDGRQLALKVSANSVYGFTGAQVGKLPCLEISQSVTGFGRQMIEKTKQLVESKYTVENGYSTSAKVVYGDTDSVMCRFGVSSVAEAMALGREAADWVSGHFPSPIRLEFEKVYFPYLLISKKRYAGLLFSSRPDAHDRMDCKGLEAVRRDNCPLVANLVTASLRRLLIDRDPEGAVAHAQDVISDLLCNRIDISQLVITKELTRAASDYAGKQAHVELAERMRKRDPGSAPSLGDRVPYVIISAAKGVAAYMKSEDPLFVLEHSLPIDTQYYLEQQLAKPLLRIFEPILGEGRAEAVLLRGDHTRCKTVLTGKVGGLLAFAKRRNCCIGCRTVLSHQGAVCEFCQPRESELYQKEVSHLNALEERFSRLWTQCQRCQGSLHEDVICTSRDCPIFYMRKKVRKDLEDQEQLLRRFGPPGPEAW
UniProt P04406: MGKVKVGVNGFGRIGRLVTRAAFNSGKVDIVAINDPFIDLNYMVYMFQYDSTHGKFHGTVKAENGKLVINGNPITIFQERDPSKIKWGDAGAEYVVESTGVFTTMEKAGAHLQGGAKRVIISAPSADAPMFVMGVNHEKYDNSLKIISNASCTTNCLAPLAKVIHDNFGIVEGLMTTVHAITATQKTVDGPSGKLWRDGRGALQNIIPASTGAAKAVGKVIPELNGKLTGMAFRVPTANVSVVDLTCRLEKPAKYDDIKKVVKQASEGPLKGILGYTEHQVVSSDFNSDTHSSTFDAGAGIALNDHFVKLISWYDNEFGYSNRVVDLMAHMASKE

Experiment in all cases: affinity purification with mass spectrometry
The target of assay [1] is Cu/Zn superoxide dismutase (SOD1) (human (endogenous in HeLa)) (UniProt P00441).
Assay [2] concerns the target T1, catalase (CAT) (human (endogenous in HeLa)) (UniProt P04040).
T1 sequence: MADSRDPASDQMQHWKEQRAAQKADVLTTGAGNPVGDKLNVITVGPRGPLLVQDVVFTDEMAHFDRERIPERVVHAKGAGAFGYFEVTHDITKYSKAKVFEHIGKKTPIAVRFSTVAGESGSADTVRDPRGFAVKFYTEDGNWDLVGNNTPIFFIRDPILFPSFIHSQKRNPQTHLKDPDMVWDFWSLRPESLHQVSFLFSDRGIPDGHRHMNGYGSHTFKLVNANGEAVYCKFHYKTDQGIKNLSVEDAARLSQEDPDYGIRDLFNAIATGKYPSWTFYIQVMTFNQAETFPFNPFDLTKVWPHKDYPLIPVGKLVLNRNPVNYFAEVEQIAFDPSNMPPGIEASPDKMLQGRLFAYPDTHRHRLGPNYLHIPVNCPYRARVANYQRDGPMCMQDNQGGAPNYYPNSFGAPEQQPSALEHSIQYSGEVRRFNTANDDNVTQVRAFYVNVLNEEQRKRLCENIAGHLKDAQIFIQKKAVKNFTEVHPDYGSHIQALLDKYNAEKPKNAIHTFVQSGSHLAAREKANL

Assay [3] deals with T2, peroxiredoxin 2 (PRDX2) (human (endogenous in HeLa)) (UniProt P32119).
T2 sequence: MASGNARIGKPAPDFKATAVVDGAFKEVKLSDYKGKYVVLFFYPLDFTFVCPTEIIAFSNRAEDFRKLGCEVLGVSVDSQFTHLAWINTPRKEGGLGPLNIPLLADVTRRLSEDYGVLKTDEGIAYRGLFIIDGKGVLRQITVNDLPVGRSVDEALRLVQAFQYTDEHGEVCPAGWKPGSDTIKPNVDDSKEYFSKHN

These are yes or no findings as the source states them, for the method shown. Binding seen in cells or lysates may run through a third protein. Here binding means that the protein was enriched with, or labelled near, the bait; the list need not be complete.

Turning to FEN1 (from UniProt P39748 1-380), the binding entry in assay [1] and in assay [2] was “binds” each time.

On to MCM2 (from UniProt P49736 1-904), for which the binding entry in assay [3], in assay [1] and in assay [2] was “binds” each time.

As for MSH6 (from UniProt P52701 1-1360), the binding result in assay [3], in assay [1] and in assay [2] was “binds” throughout.

On to PCNA (from UniProt P12004 1-261), for which the binding entry in assay [1] and in assay [2] was “binds” throughout.

“POLD1 (a DNA polymerase subunit) (from UniProt P28340 1-1107)”: the binding entry in assay [3], in assay [1] and in assay [2] was “binds” in each case.

“glyceraldehyde-3-phosphate dehydrogenase (GAPDH) (from UniProt P04406 1-335)”: in assay [1], the binding result is reported as “binds”.
